Measured values from the supplement of paper PMC4604168 (melanoma cell lines).
The other results are listed elsewhere or left out. Many values rest on one well or one pass, so single values are uncertain.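 The apoptosis fraction was the count of cleaved-PARP antibody-stained nuclei relative to all DNA-stained nuclei, imaged in 1,536-well plates. Screening doses were set so most cells survived, and baseline and induced cleaved-PARP levels vary greatly across cell lines.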

Columns and labels:
Test in all cases: cleaved PARP positive nuclei fraction relative to DMSO control; melanoma cells; higher = more apoptosis
Conditions in all cases: library dose: low library concentration; 72 h
501Mel = system: 501Mel
A101D = system: A101D
A2058 = system: A2058
A375 = system: A375
C32 = system: C32
CBRC008 = system: CBRC008 (line from a melanoma biopsy)
CBRC013 = system: CBRC013 (line from a melanoma biopsy)
CBRC014 = system: CBRC014 (line from a melanoma biopsy)
CBRC016 = system: CBRC016 (line from a melanoma biopsy)
CBRC017 = system: CBRC017 (line from a melanoma biopsy)
COLO792 = system: COLO792
COLO800 = system: COLO800
COLO829 = system: COLO829
G361 = system: G361
IPC-298 = system: IPC-298
IST-MEL1 = system: IST-MEL1
LB2518-MEL = system: LB2518-MEL
LOXIMVI = system: LOXIMVI
MEL-HO = system: MEL-HO

SMILES | cleaved PARP positive nuclei fraction (501Mel) | cleaved PARP positive nuclei fraction (A101D) | cleaved PARP positive nuclei fraction (A2058) | cleaved PARP positive nuclei fraction (A375) | cleaved PARP positive nuclei fraction (C32) | cleaved PARP positive nuclei fraction (CBRC008) | cleaved PARP positive nuclei fraction (CBRC013) | cleaved PARP positive nuclei fraction (CBRC014) | cleaved PARP positive nuclei fraction (CBRC016) | cleaved PARP positive nuclei fraction (CBRC017) | cleaved PARP positive nuclei fraction (COLO792) | cleaved PARP positive nuclei fraction (COLO800) | cleaved PARP positive nuclei fraction (COLO829) | cleaved PARP positive nuclei fraction (G361) | cleaved PARP positive nuclei fraction (IPC-298) | cleaved PARP positive nuclei fraction (IST-MEL1) | cleaved PARP positive nuclei fraction (LB2518-MEL) | cleaved PARP positive nuclei fraction (LOXIMVI) | cleaved PARP positive nuclei fraction (MEL-HO)
Cc1cc(N2CCOCC2)cc2[nH]c(-c3c(NC[C@@H](O)c4cccc(Cl)c4)cc[nH]c3=O)nc12 + O=C(O)c1ccc(-c2c[nH]c3ncc(-c4ccccc4)cc23)cc1C1CCCC1 [GSK650394] (first compound 0.2 µM, partner dose 0.16 µM) | 110% | 106% | 95.3% | 283% | 160% | 414% | 143% | 111% | 149% | 82.8% | 173% | 245% | 78.2% | 312% | 106% | 155% | 189% | 101% | 70.8%
Cn1c(Nc2ccc(C(F)(F)F)cc2)nc2cc(Oc3ccnc(-c4ncc(C(F)(F)F)[nH]4)c3)ccc21 + O=C(CCCCCCC(=O)Nc1ccccc1)NO [vorinostat] (first compound 0.08 µM, partner dose 0.08 µM) | 169% | 137% | 112% | 176% | 148% | 156% | 138% | 90.3% | 245% | 113% | 262% | 65.5% | 96.9% | 166% | 168% | 70% | 577% | 49.1% | 92.8%
Cn1c(Nc2ccc(C(F)(F)F)cc2)nc2cc(Oc3ccnc(-c4ncc(C(F)(F)F)[nH]4)c3)ccc21 + O=C(Nc1cccc(Cl)c1)Nc1ncc(CCNc2ncnc3ccsc23)s1 [SNS314] (first compound 0.08 µM, partner dose 0.0008 µM) | 149% | 118% | 121% | 433% | 261% | 170% | 283% | 93.9% | 118% | 86.4% | 504% | 74.3% | 119% | 406% | 171% | 60.1% | 222% | 36.4% | 148%
COc1cc(Nc2ncc(F)c(Nc3ccc4c(n3)NC(=O)C(C)(C)O4)n2)cc(OC)c1OC [Tamatinib] + O=C(O)c1ccc(-c2c[nH]c3ncc(-c4ccccc4)cc23)cc1C1CCCC1 [GSK650394] (first compound 0.4 µM, partner dose 0.16 µM) | 72.4% | 45.1% | 137% | 161% | 211% | 310% | 116% | 94.9% | 93.2% | 93.3% | 221% | 272% | 171% | 25.6% | 118% | 145% | 95% | 120% | 140%
O=C(CCCCCCC(=O)Nc1ccccc1)NO [vorinostat] + COc1cc2c(Oc3ccc4[nH]c(C)cc4c3F)ncnc2cc1OCCCN1CCCC1 [cediranib] (first compound 0.08 µM, partner dose 0.4 µM) | 213% | 41.9% | 40.8% | 116% | 114% | 126% | 90.2% | 97.3% | 164% | 94.6% | 114% | 59.7% | 38.5% | 103% | 47.1% | 63.4% | 43.1% | 135% | 32.4%
COCC[n+]1c2c(n(Cc3cnccn3)c1C)C(=O)c1ccccc1C2=O + COc1cc(Nc2ncc(F)c(Nc3ccc4c(n3)NC(=O)C(C)(C)O4)n2)cc(OC)c1OC [Tamatinib] (first compound 0.0004 µM, partner dose 0.4 µM) | 108% | 49.3% | 337% | 231% | 78.3% | 1480% | 157% | 181% | 157% | 109% | 148% | 94.3% | 83.5% | 94.5% | 61.5% | 76.3% | 134% | 15.6% | 79.7%
Cc1nc(Nc2ncc(C(=O)Nc3c(C)cccc3Cl)s2)cc(N2CCN(CCO)CC2)n1 [dasatanib] + COc1cc(Nc2ncc(F)c(Nc3ccc4c(n3)NC(=O)C(C)(C)O4)n2)cc(OC)c1OC [Tamatinib] (first compound 0.004 µM, partner dose 0.4 µM) | 328% | 94.4% | 84.2% | 124% | 335% | 241% | 77.5% | 99.5% | 103% | 94.9% | 210% | 166% | 158% | 85.3% | 58.9% | 119% | 132% | 117% | 192%
CC1(C)NC(=O)N(c2ccc([N+](=O)[O-])c(C(F)(F)F)c2)C1=O [nilutamide] + COc1cc2c(Oc3ccc4[nH]c(C)cc4c3F)ncnc2cc1OCCCN1CCCC1 [cediranib] (first compound 1 µM, partner dose 0.4 µM) | 139% | 76.7% | 130% | 158% | 132% | 81.9% | 86.2% | 81.6% | 45.9% | 63.5% | 126% | 60.1% | 114% | 149% | 94.2% | 56.4% | 62.6% | 29.1% | 69.5%
C=CCNC1=C2C[C@@H](C)C[C@H](OC)[C@H](O)[C@@H](C)/C=C(\C)[C@H](OC(N)=O)[C@@H](OC)/C=C\C=C(/C)C(=O)NC(=CC1=O)C2=O [Tanespimycin] + Cn1cncc1[C@@](N)(c1ccc(Cl)cc1)c1ccc2c(c1)c(-c1cccc(Cl)c1)cc(=O)n2C [tipifarnib] (first compound 0.002 µM, partner dose 0.01 µM) | 108% | 96.8% | 143% | 54.8% | 826% | 1600% | 174% | 299% | 113% | 110% | 79% | 135% | 101% | 77% | 94.1% | 98.3% | 119% | 267% | 142%
C[C@]1(c2nc3c(C(N)=O)cccc3[nH]2)CCCN1 [Veliparib] + CN(NC(=O)CC(=O)NN(C)C(=S)c1ccccc1)C(=S)c1ccccc1 [STA4783] (first compound 1.4 µM, partner dose 0.006 µM) | 151% | 27.5% | 136% | 5700% | 220% | 1480% | 143% | 748% | 382% | 405% | 143% | 97.3% | 208% | 98.7% | 126% | 188% | 364% | 214% | 32.5%
CC(=O)c1c(C)c2cnc(Nc3ccc(N4CCNCC4)cn3)nc2n(C2CCCC2)c1=O [palbociclib] + NCC(=O)Nc1ccc(-n2nc(C(F)(F)F)cc2-c2ccc3c(ccc4ccccc43)c2)cc1 [OSU03012] (first compound 0.04 µM, partner dose 1 µM) | 91.8% | 100% | 52.1% | 11700% | 55.8% | 102% | 130% | 97.1% | 154% | 94.4% | 130% | 139% | 66.3% | 106% | 60.9% | 75.5% | 27.8% | 180% | 143%
Cc1nc(Nc2ncc(C(=O)Nc3c(C)cccc3Cl)s2)cc(N2CCN(CCO)CC2)n1 [dasatanib] + C=CCn1c(=O)c2cnc(Nc3ccc(N4CCN(C)CC4)cc3)nc2n1-c1cccc(C(C)(C)O)n1 [MK1775] (first compound 0.004 µM, partner dose 0.02 µM) | 105% | 111% | 148% | 609% | 476% | 88.9% | 120% | 132% | 109% | 85.4% | 233% | 268% | 226% | 202% | 90% | 34.5% | 54.3% | 112% | 147%
C#Cc1cccc(Nc2ncnc3cc(OCCOC)c(OCCOC)cc23)c1 [erlotinib] + Cc1cc(N2CCOCC2)cc2[nH]c(-c3c(NC[C@@H](O)c4cccc(Cl)c4)cc[nH]c3=O)nc12 [BMS536924] (first compound 0.8 µM, partner dose 0.2 µM) | 96.9% | 187% | 36.9% | 118% | 99.5% | 312% | 227% | 93.1% | 111% | 98.4% | 194% | 59.6% | 19.9% | 97.6% | 105% | 99.4% | 211% | 196% | 83%
Cc1cc(N2CCOCC2)cc2[nH]c(-c3c(NC[C@@H](O)c4cccc(Cl)c4)cc[nH]c3=O)nc12 + CN(NC(=O)CC(=O)NN(C)C(=S)c1ccccc1)C(=S)c1ccccc1 [STA4783] (first compound 0.2 µM, partner dose 0.006 µM) | 671% | 181% | 118% | 8020% | 97.9% | 4330% | 252% | 781% | 197% | 491% | 249% | 244% | 211% | 143% | 47.5% | 182% | 144% | 73.4% | 153%
COc1cc(Nc2ncc(F)c(Nc3ccc4c(n3)NC(=O)C(C)(C)O4)n2)cc(OC)c1OC [Tamatinib] + C=CCn1c(=O)c2cnc(Nc3ccc(N4CCN(C)CC4)cc3)nc2n1-c1cccc(C(C)(C)O)n1 [MK1775] (first compound 0.4 µM, partner dose 0.02 µM) | 126% | 106% | 126% | 48.9% | 98.7% | 168% | 73.5% | 102% | 46.9% | 112% | 193% | 92.8% | 131% | 115% | 72.7% | 248% | 231% | 140% | 35.3%
COc1cc(Nc2ncc(F)c(Nc3ccc4c(n3)NC(=O)C(C)(C)O4)n2)cc(OC)c1OC [Tamatinib] + CO[C@@H]1[C@H](N(C)C(=O)c2ccccc2)C[C@H]2O[C@]1(C)n1c3ccccc3c3c4c(c5c6ccccc6n2c5c31)C(=O)NC4 [Midostaurin] (first compound 0.4 µM, partner dose 0.08 µM) | 194% | 122% | 313% | 246% | 186% | 58.6% | 128% | 89.8% | 159% | 118% | 144% | 135% | 137% | 148% | 126% | 108% | 352% | 176% | 90.9%
C#Cc1cccc(Nc2ncnc3cc(OCCOC)c(OCCOC)cc23)c1 [erlotinib] + Cc1ccc(NC(=O)c2cccc(N(C)C)c2)cc1NC(=O)c1ccc(O)cc1 [ZM336372] (first compound 0.8 µM, partner dose 2 µM) | 72.4% | 178% | 250% | 82.5% | 70.8% | 24.6% | 77.4% | 117% | 44.5% | 108% | 114% | 85.1% | 167% | 52.5% | 237% | 165% | 60.3% | 47.5% | 91.1%

Look-ups from the list:
Under cleaved PARP positive nuclei fraction (A101D), CC(=O)c1c(C)c2cnc(Nc3ccc(N4CCNCC4)cn3)nc2n(C2CCCC2)c1=O [palbociclib] + NCC(=O)Nc1ccc(-n2nc(C(F)(F)F)cc2-c2ccc3c(ccc4ccccc43)c2)cc1 [OSU03012] (first compound 0.04 µM, partner dose 1 µM) reads 100%
Under cleaved PARP positive nuclei fraction (MEL-HO), Cc1cc(N2CCOCC2)cc2[nH]c(-c3c(NC[C@@H](O)c4cccc(Cl)c4)cc[nH]c3=O)nc12 + CN(NC(=O)CC(=O)NN(C)C(=S)c1ccccc1)C(=S)c1ccccc1 [STA4783] (first compound 0.2 µM, partner dose 0.006 µM) reads 153%
